Assay: Optical microscopic examination of neat API dry powder
Assay type: physicochemical
Source text: Neat API: For optical microscopic/image analysis examination the material was used as received. A small aliquot was placed on a clean microscope slide and a clean glass coverslip placed on top.
The optical microscope was a Zeiss Model Std 25 fitted with a 40× objective. The particle size analyzers were the Horiba LA 950 (LD) and a Malvern NanoSizer 90Z (DLS). The Raman spectrometer was a Horiba XploRA Raman Microscope.

COc1ccc2cc(C(C)C(=O)O)ccc2c1 (stereo not shown) [Naproxen, 2-(6-methoxynaphthalen-2-yl)propanoic acid]
particle size prior to formulation: ~100 microns
